Consider 1 compound from ChEMBL document CHEMBL4311974, “Synthesis of coumarin-sulfonamide derivatives and determination of their cytotoxicity, carbonic anhydrase inhibitory and molecular docking studies” (Eur J Med Chem, 2019).

By IC50 is commonly meant the concentration needed to halve the response being measured. A lower IC50 goes with greater potency in that assay.

The test concerns HT-29. The test is described as follows: cells. The class given is functional, cell-based. The following applies: Homo sapiens, HT-29, 24 h.

For `CC(=O)Nc1nnc(S(N)(=O)=O)s1` [ACETAZOLAMIDE], the IC50 turned out to be 53.8 µM.
